{"source": "patent US20260256818A1", "about": "“NOVEL CO-DRUG, CO-ADMINISTRATION, AND SEQUENTIAL ADMINISTRATION OF BISPECIFIC RBP4/TTR LIGAND AND C20-D3-RETINOL FOR ELIMINATION OF MECHANISM-BASED OCULAR ADVERSE EFFECTS IN TREATING MACULAR DEGENERATION AND TTR AMYLOIDOSIS” (The Trustees of Columbia University in the City of New York, priority 2023, published 2026)", "origin": "cited, not measured here", "details": "in vitro; cited from earlier work", "data": [{"smiles": "[2H]C([2H])([2H])C(/C=C/C=C(C)/C=C/C1=C(C)CCCC1(C)C)=C\\C=O", "note": "[C20-D3-retinaldehyde]", "values": [{"measurement": "dimer formation less rapid than unlabeled retinaldehyde", "result": 12, "unit": "times"}, {"measurement": "reduction of bisretinoid A2E formation", "result": 7, "unit": "fold"}]}]}
